From patent US20240101972A1, “METHODS OF […]-[…] PRODUCTION” (priority 2021, published 2024)
At least one compound was matched to its structure with a doubt left.

What was measured:
[1] = test system: Rep with C-terminal degron under the control of TRE3G promoter; assay: Western blot of Rep with C-terminal degron under TRE3G promoter control; format: cell-based
Method: (§1) PEI pro transfection reagent (Polyplus), OptiMEM (Gibco) were used. […] These cell pellets were kept at −80 freezer.
Protein concentrations were measured with BCA kit (Pierce). […] Membranes were scanned with Odyssey (Li-Cor).
(§2) In this study a Tet response element containing promoter (TRE3G) is cloned in front of the Rep gene as shown at FIG. 18A. This promoter can be activated in the presence of Tet proteins and doxycycline induction. Rep with C-terminal Degron under Tet Response Element promoter control is shown to be functional for AAV production regulation. Large Rep is under the control of Tet promoter and small Rep expression is provided by p19 promoter (Samples 1-5). […] Shield1 can upregulate small Rep expression (Sample 1 vs Sample 2) and large Rep expression (Sample 3 vs Sample 4). A separate plasmid is used for supplying Tet-On 3G transactivator protein where transactivator protein expression is under the control of ubiquitous CMV promoter (Samples 1-4). The amino acid sequence of the transactivator protein is: […]

[2] = test system: Rep with C-terminal degron under the control of TRE3G promoter; assay: AAV titer (qPCR) of Rep with C-terminal degron under TRE3G promoter control; format: cell-based
Method: as §1
Frozen harvested cells were thawed and sonicated. […] Then DNaseI treatment was performed for 15 minutes.
as §2

C[C@H]1c2cccc(O)c2C(=O)C2=C(O)[C@]3(O)C(=O)C(C(N)=O)=C(O)[C@@H](N(C)C)[C@@H]3[C@@H](O)[C@@H]21 [Doxycycline, doxycycline]
Large Rep expression ([1]; Tet-On 3G transactivator supplied, Samples 3 and 4, FIG. 16A): can be detected | expression of large Rep ([1]; plasmids with or without p5 promoter at 3′ of Rep, Samples 3-4 and 7-8, FIG. 18B): effectively induces | expression of large Rep ([1]; range of doxycycline levels, Samples 3-8, FIG. 17A): effectively induces | AAV titer ([2]; codon-modified Rep and small Rep under TRE3G and degron control, treated with Shield1 and Dox together, FIG. 20B): higher | AAV titer ([2]; different doxycycline levels, with or without Shield1, FIG. 17B): can increase the AAV titer
